{"source": "PubChem BioAssay AID1224828 (NIAID, 2016)", "screen": "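Knock-downs that increase or decrease LPS-induced p65 nuclear translocation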 (primary screen)", "system": "mouse RAW264.7 G9 macrophage reporter cells (GFP-p65, Tnf promoter-mCherry)", "reagents": "siRNA pool against mouse genes, 100 nM", "time to read-out": "2 days siRNA transfection, then 40 min LPS before fixation", "conditions": "LPS (Salmonella minnesota R595) at 10 ng/ml", "measurement": "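Imaged p65 nuclear translocation ratio, normalised to the plate median, converted to robust z-scores and averaged across two replicates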", "reading the numbers": "p65 translocation robust z-score: higher = more nuclear NF-kappaB p65 after LPS than the plate median; nuclear/cytoplasmic p65 ratio: higher = more nuclear NF-kappaB p65", "call rule": "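Called active when z exceeds 3.3 or falls under -1.56 (median of Tlr4 controls), giving activity score of at least 50; no calls for control wells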", "meaning of the calls": "active = hit (p65 shift raised or lowered); inactive = no clear change", "note": "The deposit covers about 17,000 reagents; shown is an unselected part. 762 of them (4.5%) count as active. 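Active calls include both raised and lowered p65 entry, mostly lowered; wells with fewer than 50 cells lack a z-score.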 Raw values vary from plate to plate and are shown uncorrected."}
{"target gene":"Gprc5d (G protein-coupled receptor, family C, group 5, member D)","p65 translocation robust z-score":0.62,"nuclear/cytoplasmic p65 ratio, rep 1":1.59,"nuclear/cytoplasmic p65 ratio, rep 2":1.66,"low cell count flag":"enough cells to score","outcome":"inactive"}
{"target gene":"Traf6 (TNF receptor-associated factor 6)","p65 translocation robust z-score":-1.44,"nuclear/cytoplasmic p65 ratio, rep 1":1.33,"nuclear/cytoplasmic p65 ratio, rep 2":1.29,"low cell count flag":"enough cells to score","outcome":"inactive"}
{"target gene":"Rnf186 (ring finger protein 186)","p65 translocation robust z-score":-0.81,"nuclear/cytoplasmic p65 ratio, rep 1":1.31,"nuclear/cytoplasmic p65 ratio, rep 2":1.44,"low cell count flag":"enough cells to score","outcome":"inactive"}
{"target gene":"Lrrn2 (leucine rich repeat protein 2, neuronal)","p65 translocation robust z-score":0.06,"nuclear/cytoplasmic p65 ratio, rep 1":1.65,"nuclear/cytoplasmic p65 ratio, rep 2":1.62,"low cell count flag":"enough cells to score","outcome":"inactive"}
{"target gene":"Mmp1a (matrix metallopeptidase 1a (interstitial collagenase))","p65 translocation robust z-score":0.73,"nuclear/cytoplasmic p65 ratio, rep 1":1.53,"nuclear/cytoplasmic p65 ratio, rep 2":1.45,"low cell count flag":"enough cells to score","outcome":"inactive"}
{"target gene":"Zfp109 (zinc finger protein 109)","p65 translocation robust z-score":0.23,"nuclear/cytoplasmic p65 ratio, rep 1":1.41,"nuclear/cytoplasmic p65 ratio, rep 2":1.3,"low cell count flag":"enough cells to score","outcome":"inactive"}
{"target gene":"Zfp512 (zinc finger protein 512)","p65 translocation robust z-score":-0.62,"nuclear/cytoplasmic p65 ratio, rep 1":1.36,"nuclear/cytoplasmic p65 ratio, rep 2":1.15,"low cell count flag":"enough cells to score","outcome":"inactive"}
{"target gene":"Galr3 (galanin receptor 3)","p65 translocation robust z-score":-0.04,"nuclear/cytoplasmic p65 ratio, rep 1":1.5,"nuclear/cytoplasmic p65 ratio, rep 2":1.39,"low cell count flag":"enough cells to score","outcome":"inactive"}
{"target gene":"Parp3 (poly (ADP-ribose) polymerase family, member 3)","p65 translocation robust z-score":-0.59,"nuclear/cytoplasmic p65 ratio, rep 1":1.57,"nuclear/cytoplasmic p65 ratio, rep 2":1.49,"low cell count flag":"enough cells to score","outcome":"inactive"}
{"target gene":"Or8k38 (olfactory receptor family 8 subfamily K member 38)","p65 translocation robust z-score":0.08,"nuclear/cytoplasmic p65 ratio, rep 1":1.71,"nuclear/cytoplasmic p65 ratio, rep 2":1.55,"low cell count flag":"enough cells to score","outcome":"inactive"}
{"target gene":"Dhcr7 (7-dehydrocholesterol reductase)","p65 translocation robust z-score":1.46,"nuclear/cytoplasmic p65 ratio, rep 1":1.69,"nuclear/cytoplasmic p65 ratio, rep 2":1.56,"low cell count flag":"enough cells to score","outcome":"inactive"}
{"target gene":"Utp11 (UTP11 small subunit processome component)","p65 translocation robust z-score":-1.43,"nuclear/cytoplasmic p65 ratio, rep 1":1.25,"nuclear/cytoplasmic p65 ratio, rep 2":1.24,"low cell count flag":"enough cells to score","outcome":"inactive"}
